The source of these data is article PMC7031342.

By UniProt entry, the sequences of proteins in these tests, tags left out.
UniProt Q00765: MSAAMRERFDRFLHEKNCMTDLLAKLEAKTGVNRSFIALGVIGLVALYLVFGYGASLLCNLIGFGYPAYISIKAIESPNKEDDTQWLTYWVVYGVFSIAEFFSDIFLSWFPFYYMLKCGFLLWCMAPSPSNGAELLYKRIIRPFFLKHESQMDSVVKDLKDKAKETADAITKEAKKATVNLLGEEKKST
UniProt O95197: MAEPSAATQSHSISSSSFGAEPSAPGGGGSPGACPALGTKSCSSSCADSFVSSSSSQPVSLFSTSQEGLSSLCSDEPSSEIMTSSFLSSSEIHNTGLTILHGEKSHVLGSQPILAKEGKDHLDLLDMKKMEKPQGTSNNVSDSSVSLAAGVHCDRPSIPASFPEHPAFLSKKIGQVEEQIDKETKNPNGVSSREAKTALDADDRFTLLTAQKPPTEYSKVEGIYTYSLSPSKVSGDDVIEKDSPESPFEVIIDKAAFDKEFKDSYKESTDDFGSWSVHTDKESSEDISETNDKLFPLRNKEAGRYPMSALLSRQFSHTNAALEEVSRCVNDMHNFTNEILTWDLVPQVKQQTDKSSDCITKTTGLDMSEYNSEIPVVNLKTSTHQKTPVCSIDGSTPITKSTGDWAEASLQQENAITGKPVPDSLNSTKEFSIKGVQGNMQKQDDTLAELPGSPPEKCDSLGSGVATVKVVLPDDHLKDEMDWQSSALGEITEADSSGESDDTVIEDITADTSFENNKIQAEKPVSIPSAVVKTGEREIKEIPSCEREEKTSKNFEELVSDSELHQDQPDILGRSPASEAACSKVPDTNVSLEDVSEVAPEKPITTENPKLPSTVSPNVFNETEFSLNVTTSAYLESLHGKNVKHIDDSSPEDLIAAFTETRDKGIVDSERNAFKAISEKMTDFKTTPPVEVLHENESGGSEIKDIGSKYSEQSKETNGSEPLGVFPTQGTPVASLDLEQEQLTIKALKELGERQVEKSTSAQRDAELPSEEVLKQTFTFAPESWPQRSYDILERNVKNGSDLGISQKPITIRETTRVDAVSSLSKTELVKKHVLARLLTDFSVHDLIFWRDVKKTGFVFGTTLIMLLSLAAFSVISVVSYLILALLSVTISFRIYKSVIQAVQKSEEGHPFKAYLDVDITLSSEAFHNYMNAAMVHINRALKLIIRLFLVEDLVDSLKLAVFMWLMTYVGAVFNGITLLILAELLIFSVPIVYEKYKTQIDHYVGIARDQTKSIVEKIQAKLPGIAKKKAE
UniProt Q07065: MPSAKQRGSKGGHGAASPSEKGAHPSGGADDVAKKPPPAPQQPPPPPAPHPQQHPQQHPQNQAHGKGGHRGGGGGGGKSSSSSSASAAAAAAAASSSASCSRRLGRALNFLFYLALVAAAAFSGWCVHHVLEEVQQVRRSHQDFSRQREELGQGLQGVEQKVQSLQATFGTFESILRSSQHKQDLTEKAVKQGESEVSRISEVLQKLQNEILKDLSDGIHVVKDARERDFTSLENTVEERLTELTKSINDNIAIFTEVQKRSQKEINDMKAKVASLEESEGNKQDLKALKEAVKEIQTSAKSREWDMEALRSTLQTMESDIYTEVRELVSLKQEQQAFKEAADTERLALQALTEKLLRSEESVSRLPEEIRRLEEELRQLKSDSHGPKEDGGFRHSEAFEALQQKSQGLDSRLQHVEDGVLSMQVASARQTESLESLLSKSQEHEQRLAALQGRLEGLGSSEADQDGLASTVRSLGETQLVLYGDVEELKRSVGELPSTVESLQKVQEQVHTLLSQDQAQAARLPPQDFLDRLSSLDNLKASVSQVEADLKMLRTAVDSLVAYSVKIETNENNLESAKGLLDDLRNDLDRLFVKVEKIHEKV
UniProt P60660: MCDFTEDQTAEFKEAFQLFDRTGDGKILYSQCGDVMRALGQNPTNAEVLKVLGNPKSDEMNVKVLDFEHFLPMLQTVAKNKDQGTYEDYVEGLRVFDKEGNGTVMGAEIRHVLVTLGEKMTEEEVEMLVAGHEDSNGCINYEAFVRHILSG
UniProt P04406: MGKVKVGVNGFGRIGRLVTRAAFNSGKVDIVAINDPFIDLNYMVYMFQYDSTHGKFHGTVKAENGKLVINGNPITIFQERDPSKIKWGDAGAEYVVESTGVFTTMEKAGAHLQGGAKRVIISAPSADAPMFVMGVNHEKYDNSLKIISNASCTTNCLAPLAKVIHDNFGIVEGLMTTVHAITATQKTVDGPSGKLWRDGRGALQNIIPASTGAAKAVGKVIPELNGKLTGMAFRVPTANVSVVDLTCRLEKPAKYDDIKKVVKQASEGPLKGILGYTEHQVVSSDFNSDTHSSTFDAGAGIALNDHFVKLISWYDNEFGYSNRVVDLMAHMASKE

No constants are given. Whether binding was seen depends on the method and setting. In cells and extracts the contact can be indirect. These calls come from enrichment with a bait or labelling near it, and not all partners need be listed. No binding means not detected with the bait.

This assay concerns the target CnVA-tagged (StrepII-6xHis, 3xFlag) REEP5 (human) (UniProt Q00765). The experiment in a line: affinity purification with mass spectrometry; nickel-His purification of CnVA-REEP5 from transfected HEK293 cells against untransfected controls; Q Exactive Plus, iBAQ.
As for RTN3 (from UniProt O95197 1-1032), the binding entry was “binds”.

Consider “CKAP4 (HEK293) (from UniProt Q07065 1-602)”, for which the binding entry was “binds”.

Turning to MYL6 (from UniProt P60660 1-151), the binding entry is on record as “no binding”.

Take GAPDH (from UniProt P04406 1-335): the binding entry is recorded as “no binding”.
